# The supplement of paper PMC12067093, “Discovery and optimisation of a covalent ligand for TRIM25 and its application to targeted protein ubiquitination” (Chemical Science, 2025)
# Protein sequences, listed by entry. Tags and fused reporters are not part of them. Lines headed by an entry give the natural chain unless they say otherwise; changes in a name come on top.
# UniProt Q9BTW9: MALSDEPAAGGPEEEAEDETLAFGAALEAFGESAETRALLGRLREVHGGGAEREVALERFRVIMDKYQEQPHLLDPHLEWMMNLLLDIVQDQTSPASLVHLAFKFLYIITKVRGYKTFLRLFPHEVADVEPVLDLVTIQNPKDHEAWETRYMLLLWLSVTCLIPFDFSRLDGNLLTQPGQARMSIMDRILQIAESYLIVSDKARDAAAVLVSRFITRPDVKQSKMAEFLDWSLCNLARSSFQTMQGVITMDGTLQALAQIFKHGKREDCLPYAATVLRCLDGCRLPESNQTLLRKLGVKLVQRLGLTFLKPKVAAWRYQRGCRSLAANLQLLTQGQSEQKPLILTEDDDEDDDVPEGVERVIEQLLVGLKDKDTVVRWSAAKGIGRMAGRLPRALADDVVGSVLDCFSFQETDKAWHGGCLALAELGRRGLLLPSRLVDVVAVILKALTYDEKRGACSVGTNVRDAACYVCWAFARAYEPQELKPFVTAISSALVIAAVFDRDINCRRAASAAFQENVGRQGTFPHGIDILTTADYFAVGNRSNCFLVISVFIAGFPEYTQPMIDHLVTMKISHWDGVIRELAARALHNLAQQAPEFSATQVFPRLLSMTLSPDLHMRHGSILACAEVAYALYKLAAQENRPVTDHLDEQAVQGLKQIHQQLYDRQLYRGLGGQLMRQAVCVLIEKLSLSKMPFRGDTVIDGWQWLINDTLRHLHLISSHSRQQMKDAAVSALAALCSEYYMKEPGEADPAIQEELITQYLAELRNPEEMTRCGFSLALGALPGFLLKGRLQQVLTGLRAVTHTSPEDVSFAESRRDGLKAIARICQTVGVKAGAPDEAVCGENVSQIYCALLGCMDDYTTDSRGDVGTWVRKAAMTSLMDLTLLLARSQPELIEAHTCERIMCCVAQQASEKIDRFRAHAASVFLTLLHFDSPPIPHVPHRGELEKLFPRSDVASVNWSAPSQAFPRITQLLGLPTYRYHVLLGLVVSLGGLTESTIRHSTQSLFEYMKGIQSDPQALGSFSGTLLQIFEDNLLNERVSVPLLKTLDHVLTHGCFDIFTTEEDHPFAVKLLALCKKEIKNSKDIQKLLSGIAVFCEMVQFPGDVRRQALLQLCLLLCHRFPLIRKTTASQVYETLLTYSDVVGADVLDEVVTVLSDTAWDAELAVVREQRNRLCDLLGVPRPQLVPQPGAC
# UniProt Q9C0D5: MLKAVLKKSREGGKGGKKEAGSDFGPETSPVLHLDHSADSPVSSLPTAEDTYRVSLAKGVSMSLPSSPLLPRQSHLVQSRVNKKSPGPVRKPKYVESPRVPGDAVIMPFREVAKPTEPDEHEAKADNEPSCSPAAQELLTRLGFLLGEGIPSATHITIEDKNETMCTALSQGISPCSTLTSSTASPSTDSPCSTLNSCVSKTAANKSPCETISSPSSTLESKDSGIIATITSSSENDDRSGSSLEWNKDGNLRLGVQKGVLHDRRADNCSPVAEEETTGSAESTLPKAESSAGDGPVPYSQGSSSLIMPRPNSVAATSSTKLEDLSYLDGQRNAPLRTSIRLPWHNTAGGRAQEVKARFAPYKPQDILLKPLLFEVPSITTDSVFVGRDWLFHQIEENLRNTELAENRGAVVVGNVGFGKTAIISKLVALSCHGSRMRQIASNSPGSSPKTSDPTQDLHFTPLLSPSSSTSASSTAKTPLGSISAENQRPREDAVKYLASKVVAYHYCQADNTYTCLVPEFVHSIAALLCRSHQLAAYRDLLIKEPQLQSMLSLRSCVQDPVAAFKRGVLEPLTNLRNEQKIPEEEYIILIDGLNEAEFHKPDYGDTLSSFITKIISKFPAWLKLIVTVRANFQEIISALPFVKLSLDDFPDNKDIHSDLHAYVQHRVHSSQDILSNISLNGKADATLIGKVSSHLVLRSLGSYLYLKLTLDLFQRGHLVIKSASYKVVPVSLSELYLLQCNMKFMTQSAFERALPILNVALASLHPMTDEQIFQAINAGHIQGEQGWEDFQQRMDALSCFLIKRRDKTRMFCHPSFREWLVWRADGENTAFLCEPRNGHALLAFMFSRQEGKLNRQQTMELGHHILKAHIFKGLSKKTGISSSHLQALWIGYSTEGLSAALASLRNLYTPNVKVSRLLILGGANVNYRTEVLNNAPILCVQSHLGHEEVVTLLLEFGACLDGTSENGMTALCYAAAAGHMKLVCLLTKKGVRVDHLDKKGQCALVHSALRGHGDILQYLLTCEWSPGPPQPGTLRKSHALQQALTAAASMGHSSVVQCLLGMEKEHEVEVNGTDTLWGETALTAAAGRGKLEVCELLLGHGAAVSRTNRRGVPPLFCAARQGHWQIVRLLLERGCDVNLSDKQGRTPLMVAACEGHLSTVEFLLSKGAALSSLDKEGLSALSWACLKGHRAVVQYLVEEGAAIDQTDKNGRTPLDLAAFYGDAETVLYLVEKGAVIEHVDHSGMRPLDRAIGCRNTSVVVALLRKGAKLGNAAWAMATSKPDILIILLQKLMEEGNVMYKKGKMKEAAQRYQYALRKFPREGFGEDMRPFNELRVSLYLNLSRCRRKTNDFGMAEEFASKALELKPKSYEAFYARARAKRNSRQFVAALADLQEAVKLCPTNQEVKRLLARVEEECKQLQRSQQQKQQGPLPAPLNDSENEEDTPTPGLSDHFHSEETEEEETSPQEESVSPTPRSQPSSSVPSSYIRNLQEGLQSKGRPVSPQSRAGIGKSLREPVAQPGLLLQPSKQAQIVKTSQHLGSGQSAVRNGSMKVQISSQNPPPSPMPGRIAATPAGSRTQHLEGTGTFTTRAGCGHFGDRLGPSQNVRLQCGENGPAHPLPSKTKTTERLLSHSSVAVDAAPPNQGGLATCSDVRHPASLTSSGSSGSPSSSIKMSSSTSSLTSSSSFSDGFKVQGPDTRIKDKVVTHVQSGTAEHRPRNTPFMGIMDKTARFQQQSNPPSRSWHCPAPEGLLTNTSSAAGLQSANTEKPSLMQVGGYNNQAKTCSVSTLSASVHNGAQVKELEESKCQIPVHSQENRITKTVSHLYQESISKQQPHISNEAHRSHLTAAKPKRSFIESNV
# UniProt A2RTX5: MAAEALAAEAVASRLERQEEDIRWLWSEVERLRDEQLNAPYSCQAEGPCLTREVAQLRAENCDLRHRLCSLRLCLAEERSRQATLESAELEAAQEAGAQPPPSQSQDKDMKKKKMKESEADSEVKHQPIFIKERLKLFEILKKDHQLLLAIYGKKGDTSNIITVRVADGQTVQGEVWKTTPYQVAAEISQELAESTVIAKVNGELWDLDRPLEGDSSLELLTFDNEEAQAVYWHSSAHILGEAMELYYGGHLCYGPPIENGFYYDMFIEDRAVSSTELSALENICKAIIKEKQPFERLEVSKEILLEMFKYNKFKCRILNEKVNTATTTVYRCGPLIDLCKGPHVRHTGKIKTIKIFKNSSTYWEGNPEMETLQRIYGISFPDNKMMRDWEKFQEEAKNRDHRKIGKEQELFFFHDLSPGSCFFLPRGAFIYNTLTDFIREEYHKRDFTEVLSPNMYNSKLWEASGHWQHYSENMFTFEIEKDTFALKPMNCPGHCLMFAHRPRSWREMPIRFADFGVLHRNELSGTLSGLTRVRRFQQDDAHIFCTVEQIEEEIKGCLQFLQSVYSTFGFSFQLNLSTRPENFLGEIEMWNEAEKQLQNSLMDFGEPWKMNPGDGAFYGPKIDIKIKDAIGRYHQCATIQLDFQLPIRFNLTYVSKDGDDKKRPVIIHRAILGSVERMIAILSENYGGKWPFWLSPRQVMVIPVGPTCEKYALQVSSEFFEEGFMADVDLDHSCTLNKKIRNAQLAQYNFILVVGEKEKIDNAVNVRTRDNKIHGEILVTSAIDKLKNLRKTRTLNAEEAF
# UniProt Q7L7X3: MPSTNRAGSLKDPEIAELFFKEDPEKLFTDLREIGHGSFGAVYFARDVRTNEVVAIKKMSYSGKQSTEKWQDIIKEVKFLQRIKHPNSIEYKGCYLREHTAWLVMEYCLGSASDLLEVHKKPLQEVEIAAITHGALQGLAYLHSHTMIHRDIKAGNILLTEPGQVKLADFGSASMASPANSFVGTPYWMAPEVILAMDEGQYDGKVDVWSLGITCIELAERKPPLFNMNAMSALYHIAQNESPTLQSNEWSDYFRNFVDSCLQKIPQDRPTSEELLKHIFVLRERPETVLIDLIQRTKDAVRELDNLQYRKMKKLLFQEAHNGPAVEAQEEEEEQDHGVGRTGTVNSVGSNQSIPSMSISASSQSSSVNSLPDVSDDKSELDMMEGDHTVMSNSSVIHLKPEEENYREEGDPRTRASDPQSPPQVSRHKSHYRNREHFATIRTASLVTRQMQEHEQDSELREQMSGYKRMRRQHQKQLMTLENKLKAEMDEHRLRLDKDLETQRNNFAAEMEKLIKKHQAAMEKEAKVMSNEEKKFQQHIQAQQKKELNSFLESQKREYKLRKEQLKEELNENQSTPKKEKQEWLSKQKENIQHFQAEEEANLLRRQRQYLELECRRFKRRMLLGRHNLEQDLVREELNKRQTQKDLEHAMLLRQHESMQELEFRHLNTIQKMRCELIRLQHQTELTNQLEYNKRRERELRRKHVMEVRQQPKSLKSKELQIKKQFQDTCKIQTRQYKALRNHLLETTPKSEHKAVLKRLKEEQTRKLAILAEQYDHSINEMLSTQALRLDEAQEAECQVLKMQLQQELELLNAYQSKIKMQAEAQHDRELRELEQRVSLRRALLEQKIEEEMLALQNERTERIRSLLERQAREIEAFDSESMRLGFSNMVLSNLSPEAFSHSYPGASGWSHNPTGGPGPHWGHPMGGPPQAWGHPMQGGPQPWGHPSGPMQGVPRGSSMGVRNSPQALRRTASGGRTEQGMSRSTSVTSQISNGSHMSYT
# UniProt Q6P1N9: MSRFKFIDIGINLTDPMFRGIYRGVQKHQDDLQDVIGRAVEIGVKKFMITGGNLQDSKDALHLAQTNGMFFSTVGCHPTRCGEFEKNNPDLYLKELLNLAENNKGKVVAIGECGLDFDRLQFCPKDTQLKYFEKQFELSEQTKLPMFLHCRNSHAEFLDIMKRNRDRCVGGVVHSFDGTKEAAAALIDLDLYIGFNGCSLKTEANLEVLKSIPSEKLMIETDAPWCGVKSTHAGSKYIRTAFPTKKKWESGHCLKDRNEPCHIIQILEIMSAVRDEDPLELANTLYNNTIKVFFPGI
# UniProt Q9BW92: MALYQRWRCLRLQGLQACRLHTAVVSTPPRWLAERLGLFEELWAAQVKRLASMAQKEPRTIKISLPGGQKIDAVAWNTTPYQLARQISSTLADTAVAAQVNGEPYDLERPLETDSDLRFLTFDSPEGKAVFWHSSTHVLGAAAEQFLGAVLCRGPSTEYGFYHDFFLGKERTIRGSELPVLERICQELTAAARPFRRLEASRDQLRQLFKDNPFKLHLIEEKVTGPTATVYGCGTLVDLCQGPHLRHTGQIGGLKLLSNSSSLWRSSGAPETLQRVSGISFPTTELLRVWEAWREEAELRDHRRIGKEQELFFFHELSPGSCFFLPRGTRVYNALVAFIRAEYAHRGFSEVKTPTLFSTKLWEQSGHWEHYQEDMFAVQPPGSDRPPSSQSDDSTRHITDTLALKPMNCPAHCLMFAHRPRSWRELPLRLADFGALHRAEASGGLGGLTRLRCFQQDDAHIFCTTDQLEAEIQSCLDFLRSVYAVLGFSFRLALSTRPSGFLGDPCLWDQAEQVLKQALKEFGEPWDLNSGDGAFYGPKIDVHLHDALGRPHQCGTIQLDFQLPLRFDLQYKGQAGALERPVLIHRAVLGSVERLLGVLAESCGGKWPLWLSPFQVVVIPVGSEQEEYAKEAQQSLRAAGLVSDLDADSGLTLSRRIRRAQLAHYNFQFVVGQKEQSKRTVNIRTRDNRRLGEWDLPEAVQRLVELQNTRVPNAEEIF
# UniProt Q96MN5: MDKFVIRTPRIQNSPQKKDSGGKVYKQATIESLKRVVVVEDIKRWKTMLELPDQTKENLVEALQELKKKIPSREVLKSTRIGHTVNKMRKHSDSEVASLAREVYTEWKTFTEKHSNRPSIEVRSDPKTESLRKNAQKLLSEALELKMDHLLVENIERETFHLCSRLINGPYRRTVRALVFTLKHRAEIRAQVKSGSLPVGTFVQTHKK
# UniProt Q92844: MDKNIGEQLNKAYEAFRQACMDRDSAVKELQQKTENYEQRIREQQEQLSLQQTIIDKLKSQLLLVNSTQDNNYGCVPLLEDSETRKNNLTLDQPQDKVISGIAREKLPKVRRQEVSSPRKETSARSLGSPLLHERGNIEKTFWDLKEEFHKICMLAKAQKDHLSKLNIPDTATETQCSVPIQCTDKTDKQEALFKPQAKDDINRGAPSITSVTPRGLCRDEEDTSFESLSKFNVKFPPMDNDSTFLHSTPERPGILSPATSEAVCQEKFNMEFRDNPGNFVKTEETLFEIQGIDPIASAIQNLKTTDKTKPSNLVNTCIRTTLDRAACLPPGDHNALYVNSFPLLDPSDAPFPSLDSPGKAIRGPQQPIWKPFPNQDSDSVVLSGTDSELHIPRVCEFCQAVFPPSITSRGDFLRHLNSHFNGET
# This is one part of the list.
# Compound: CC1Cc2ccccc2N1C(=O)C1CCCN(C1)C(=O)CCl (mixture of isomers) [TRIM25 ligand 11 (diastereomer mixture)]
# Experiment: probe-labelled cysteine peptide fold change vs DMSO (competition) (log2 fold change); higher = less target engagement (more negative = stronger competition)
# Conditions: THP-1, incubation time: 4 h
# 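Also: competitive chemoproteomic profiling in live THP-1 cells with an iodoacetamide desthiobiotin (IA-DTB) probe, comparing probe-labelled peptide intensities in compound-treated cells against DMSO-treated controls.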
Target,probe-labelled cysteine peptide fold change (10 µM),probe-labelled cysteine peptide fold change (50 µM)
TAF6_P49848_235_EITEACVGSCEAK (UniProt P49848),-0.0162,-0.263
TBCD_Q9BTW9_234_MAEFLDWSLCNLAR (UniProt Q9BTW9),0.16,0.00397
TANC1_Q9C0D5_985_LVCLLTK (UniProt Q9C0D5),0.0106,0.103
TBP_P20226_221_MVCTGAK (UniProt P20226),-0.0387,-0.0487
SYK_P43405_593+597_MGCPAGCPR (UniProt P43405),0.16,0.0781
TARSL2_A2RTX5_637_YHQCATIQLDFQLPIR (UniProt A2RTX5),0.03,0.0695
TBCCD1_Q9NVR7_337_CNESFIYLLSPLR (UniProt Q9NVR7),0.259,0.229
TACC3_Q9Y6A5_426_SGCSEAQPPESPETR (UniProt Q9Y6A5),-0.0876,-0.101
SYVN1_Q86TM6_307_LPCNHIFHTSCLR (UniProt Q86TM6),0.185,-0.0224
TBC1D4_O60343_885_LDYEEVGACQK (UniProt O60343),0.00284,-0.216
TACC3_Q9Y6A5_749_CVEDYLAR (UniProt Q9Y6A5),0.00804,-0.139
TCEA1_P23193_294_SADEPMTTFVVCNECGNR (UniProt P23193),-0.108,-0.144
TARS_P26639_467_FQQDDAHIFCAMEQIEDEIK (UniProt P26639),0.326,0.169
TADA3_O75528_255_KSEAQHEQPEDGCPFGALTQR (UniProt O75528),-0.0288,-0.117
TARS_P26639_137_VNNVVWDLDRPLEEDCTLELLKFEDEEAQAVYWHSSAHIMGEAMER (UniProt P26639),-0.414,-0.224
TBC1D8B_Q0IIM8_80_ILHQTPDSQVYLSIACGANREEITK (UniProt Q0IIM8),-0.0172,-0.0255
TBC1D1_Q86TI0_454_CLYEEK (UniProt Q86TI0),0.0241,0.0144
TAF2_Q6P1X5_690_LALTDILEQEQCFYR (UniProt Q6P1X5),-0.0292,-0.115
TAGLN2_P37802_63_DGTVLCELINALYPEGQAPVKK (UniProt P37802),-0.273,-0.222

Target,probe-labelled cysteine peptide fold change (10 µM),probe-labelled cysteine peptide fold change (50 µM)
TBRG4_Q969Z0_335_LATDLLSLMPSLTSGEVAHCAK (UniProt Q969Z0),-0.0541,0.0927
SYNJ2_O15056_19_LGAEGDCSVLLEAR (UniProt O15056),0.0723,0.274
SYK_P43405_89_THASPADLCHYHSQESDGLVCLLK (UniProt P43405),-0.0181,-0.111
TACC1_O75410_219_AGNSCPELVPSR (UniProt O75410),-0.0492,-0.0392
TAP2_Q03519_641_VLILDEATSALDVQCEQALQDWNSR (UniProt Q03519),-0.0532,-0.0718
TANC1_Q9C0D5_1003_KGQCALVHSALR (UniProt Q9C0D5),-0.00971,0.0268
TBL1X_O60907_571_VGASASDGSVCVLDLR (UniProt O60907),0.0921,-0.099
TBC1D23_Q9NUY8_86_DCLQFIDQLSVPEEK (UniProt Q9NUY8),0.215,0.139
TBL3_Q12788_41_AQLDQTGQHLFCVCGTR (UniProt Q12788),0.0881,0.0709
TAPBPL_Q9BX59_39_AVDVVLDCFLAK (UniProt Q9BX59),-0.0571,-0.0405
TAOK1_Q7L7X3_798_LDEAQEAECQVLK (UniProt Q7L7X3),0.0134,0.0982
TATDN1_Q6P1N9_113_VVAIGECGLDFDR (UniProt Q6P1N9),0.129,0.0504
TCEA2_Q15560_163_EMLTAALQTDHDHVAIGADCER (UniProt Q15560),-0.154,-0.0842
TBC1D5_Q92609_192_ILTDVLFCYAR (UniProt Q92609),0.0186,0.0737
TBC1D13_Q9NVG8_387_LLQDYPITDVCQILQK (UniProt Q9NVG8),-0.0113,-0.192
TARS2_Q9BW92_603_LLGVLAESCGGK (UniProt Q9BW92),0.278,0.355
TCEANC2_Q96MN5_163_ETFHLCSR (UniProt Q96MN5),0.276,0.283
TANK_Q92844_183_LNIPDTATETQCSVPIQCTDK (UniProt Q92844),0.00112,-0.307
TARSL2_A2RTX5_422_EQELFFFHDLSPGSCFFLPR (UniProt A2RTX5),-0.141,-0.229

# Nothing new here: an excerpt of the list.
Target,probe-labelled cysteine peptide fold change (10 µM),probe-labelled cysteine peptide fold change (50 µM)
TARS2_Q9BW92_603_LLGVLAESCGGK (UniProt Q9BW92),0.278,0.355
TCEANC2_Q96MN5_163_ETFHLCSR (UniProt Q96MN5),0.276,0.283
TANK_Q92844_183_LNIPDTATETQCSVPIQCTDK (UniProt Q92844),0.00112,-0.307
